{"source": "the supplement of paper PMC4604168 (melanoma cell lines)", "note": "This is one part of the list. Many values rest on one well or one pass, so single values are uncertain.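 Imaging used 1,536-well plates; nuclei positive for cleaved PARP by antibody were divided by total DNA-stained nuclei to yield the apoptosis fraction. Doses for screening kept most cells viable, and cell lines differ markedly in resting and induced cleaved-PARP levels.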", "data": [{"test_system": "COLO829", "assay": "cleaved PARP positive nuclei fraction relative to DMSO control; melanoma cells; higher = more apoptosis", "details": "library dose: low library concentration; 72 h", "units": {"cleaved PARP positive nuclei fraction": "%"}, "values": [{"molecule": "Cc1cn(-c2cc(NC(=O)c3ccc(C)c(Nc4nccc(-c5cccnc5)n4)c3)cc(C(F)(F)F)c2)cn1", "note": "[nilotinib] + CNC(=O)c1cc(Oc2ccc(NC(=O)Nc3ccc(Cl)c(C(F)(F)F)c3)cc2)ccn1 [sorafenib] (first compound 0.2 µM, partner dose 0.4 µM)", "cleaved PARP positive nuclei fraction": 123}, {"molecule": "O=c1[nH]nc(Sc2ncc([N+](=O)[O-])s2)n1-c1ccc2c(c1)OCCO2", "note": "+ Nc1nc(F)nc2c1ncn2[C@@H]1O[C@H](CO)[C@@H](O)[C@@H]1O [fludarabine] (first compound 0.2 µM, partner dose 0.2 µM)", "cleaved PARP positive nuclei fraction": 70}, {"molecule": "Cc1cn(-c2cc(NC(=O)c3ccc(C)c(Nc4nccc(-c5cccnc5)n4)c3)cc(C(F)(F)F)c2)cn1", "note": "[nilotinib] + CCCS(=O)(=O)Nc1ccc(F)c(C(=O)c2c[nH]c3ncc(Cl)cc23)c1F [PLX4720] (first compound 0.2 µM, partner dose 0.08 µM)", "cleaved PARP positive nuclei fraction": 79.2}, {"molecule": "O=C(Nc1cc(C(F)(F)F)cc(C(F)(F)F)c1)c1cc(Cl)ccc1O", "note": "+ CC(=O)O[C@@]12CO[C@@H]1C[C@H](O)[C@@]1(C)C(=O)[C@H](O)C3=C(C)[C@@H](OC(=O)[C@H](O)[C@@H](NC(=O)OC(C)(C)C)c4ccccc4)C[C@@](O)([C@@H](OC(=O)c4ccccc4)[C@H]21)C3(C)C [Docetaxel] (first compound 0.016 µM, partner dose 0.0001 µM)", "cleaved PARP positive nuclei fraction": 107}, {"molecule": "O=C(/C=C/c1cccnc1)NCCCCC1CCN(C(=O)c2ccccc2)CC1", "note": "+ Nc1nc(F)nc2c1ncn2[C@@H]1O[C@H](CO)[C@@H](O)[C@@H]1O [fludarabine] (first compound 0.01 µM, partner dose 0.2 µM)", "cleaved PARP positive nuclei fraction": 68.5}, {"molecule": "N#CC[C@H](C1CCCC1)n1cc(-c2ncnc3[nH]ccc23)cn1", "note": "[ruxolitinib] + NC1(c2ccc(-c3nc4ccn5c(=O)[nH]nc5c4cc3-c3ccccc3)cc2)CCC1 [MK2206] (first compound 1 µM, partner dose 0.4 µM)", "cleaved PARP positive nuclei fraction": 101}, {"molecule": "CCCCCCCCCCCCCCCCCCOP(=O)([O-])OC1CC[N+](C)(C)CC1", "note": "[Perifosine] + Cn1c(=O)n(-c2ccc(C(C)(C)C#N)cc2)c2c3cc(-c4cnc5ccccc5c4)ccc3ncc21 [NVP-BEZ235] (first compound 0.4 µM, partner dose 0.004 µM)", "cleaved PARP positive nuclei fraction": 106}, {"molecule": "CC[C@]1(O)C[C@H]2CN(CCc3c([nH]c4ccccc34)[C@@](C(=O)OC)(c3cc4c(cc3OC)N(C=O)[C@H]3[C@@](O)(C(=O)OC)[C@H](OC(C)=O)[C@]5(CC)C=CCN6CC[C@]43[C@@H]65)C2)C1", "note": "[vincristine] + CC(=O)O[C@@]12CO[C@@H]1C[C@H](O)[C@@]1(C)C(=O)[C@H](O)C3=C(C)[C@@H](OC(=O)[C@H](O)[C@@H](NC(=O)OC(C)(C)C)c4ccccc4)C[C@@](O)([C@@H](OC(=O)c4ccccc4)[C@H]21)C3(C)C [Docetaxel] (first compound 0.0001 µM, partner dose 0.0001 µM)", "cleaved PARP positive nuclei fraction": 172}, {"molecule": "CCCCCCCCCCCCCCCCCCOP(=O)([O-])OC1CC[N+](C)(C)CC1", "note": "[Perifosine] + CO[C@H]1C[C@@H]2CC[C@@H](C)[C@@](O)(O2)C(=O)C(=O)N2CCCC[C@H]2C(=O)O[C@H]([C@H](C)C[C@@H]2CC[C@@H](OCCO)[C@H](OC)C2)CC(=O)[C@H](C)/C=C(\\C)[C@@H](O)[C@@H](OC)C(=O)[C@H](C)C[C@H](C)/C=C/C=C/C=C/1C [everolimus] (first compound 0.4 µM, partner dose 0.02 µM)", "cleaved PARP positive nuclei fraction": 72.2}, {"molecule": "Cc1ccc(Nc2nccc(N(C)c3ccc4c(C)n(C)nc4c3)n2)cc1S(N)(=O)=O", "note": "[Pazopanib] + CS(=O)(=O)CCNCc1ccc(-c2ccc3ncnc(Nc4ccc(OCc5cccc(F)c5)c(Cl)c4)c3c2)o1 [lapatinib] (first compound 0.4 µM, partner dose 0.8 µM)", "cleaved PARP positive nuclei fraction": 123}, {"molecule": "N#CC[C@H](C1CCCC1)n1cc(-c2ncnc3[nH]ccc23)cn1", "note": "[ruxolitinib] + C[C@]1(c2nc3c(C(N)=O)cccc3[nH]2)CCCN1 [Veliparib] (first compound 1 µM, partner dose 1.4 µM)", "cleaved PARP positive nuclei fraction": 56.3}, {"molecule": "CC[C@]1(O)C[C@H]2CN(CCc3c([nH]c4ccccc34)[C@@](C(=O)OC)(c3cc4c(cc3OC)N(C=O)[C@H]3[C@@](O)(C(=O)OC)[C@H](OC(C)=O)[C@]5(CC)C=CCN6CC[C@]43[C@@H]65)C2)C1", "note": "[vincristine] + Cn1cnc2c(F)c(Nc3ccc(Br)cc3Cl)c(C(=O)NOCCO)cc21 [selumetinib] (first compound 0.0001 µM, partner dose 0.015 µM)", "cleaved PARP positive nuclei fraction": 101}, {"molecule": "CC[C@]1(O)C[C@H]2CN(CCc3c([nH]c4ccccc34)[C@@](C(=O)OC)(c3cc4c(cc3OC)N(C=O)[C@H]3[C@@](O)(C(=O)OC)[C@H](OC(C)=O)[C@]5(CC)C=CCN6CC[C@]43[C@@H]65)C2)C1", "note": "[vincristine] + Nc1cccc2c1CN(C1CCC(=O)NC1=O)C2=O [lenalidomide] (first compound 0.0001 µM, partner dose 1 µM)", "cleaved PARP positive nuclei fraction": 168}, {"molecule": "N#CC[C@H](C1CCCC1)n1cc(-c2ncnc3[nH]ccc23)cn1", "note": "[ruxolitinib] + CCN(CC)CCNC(=O)c1c(C)[nH]c(/C=C2\\C(=O)Nc3ccc(F)cc32)c1C [sunitinib] (first compound 1 µM, partner dose 0.4 µM)", "cleaved PARP positive nuclei fraction": 72.3}, {"molecule": "COc1cc([C@@H]2c3cc4c(cc3[C@@H](O[C@@H]3O[C@@H]5CO[C@@H](C)O[C@H]5[C@H](O)[C@H]3O)[C@H]3COC(=O)[C@H]23)OCO4)cc(OC)c1O", "note": "[etoposide] + O=C(/C=C/c1cccnc1)NCCCCC1CCN(C(=O)c2ccccc2)CC1 [FK866] (first compound 0.02 µM, partner dose 0.01 µM)", "cleaved PARP positive nuclei fraction": 121}, {"molecule": "O=c1[nH]nc(Sc2ncc([N+](=O)[O-])s2)n1-c1ccc2c(c1)OCCO2", "note": "+ CC(=O)O[C@@]12CO[C@@H]1C[C@H](O)[C@@]1(C)C(=O)[C@H](O)C3=C(C)[C@@H](OC(=O)[C@H](O)[C@@H](NC(=O)OC(C)(C)C)c4ccccc4)C[C@@](O)([C@@H](OC(=O)c4ccccc4)[C@H]21)C3(C)C [Docetaxel] (first compound 0.2 µM, partner dose 0.0001 µM)", "cleaved PARP positive nuclei fraction": 253}, {"molecule": "N#CC[C@H](C1CCCC1)n1cc(-c2ncnc3[nH]ccc23)cn1", "note": "[ruxolitinib] + NC(=O)c1ccc(N(C(N)=O)c2c(F)cccc2F)nc1-c1ccc(F)cc1F [VX702] (first compound 1 µM, partner dose 0.4 µM)", "cleaved PARP positive nuclei fraction": 80}, {"molecule": "N#CC[C@H](C1CCCC1)n1cc(-c2ncnc3[nH]ccc23)cn1", "note": "[ruxolitinib] + Cn1sc(=O)n(Cc2ccccc2)c1=O [TDZD-8] (first compound 1 µM, partner dose 0.4 µM)", "cleaved PARP positive nuclei fraction": 123}, {"molecule": "CC[C@]1(O)C[C@H]2CN(CCc3c([nH]c4ccccc34)[C@@](C(=O)OC)(c3cc4c(cc3OC)N(C=O)[C@H]3[C@@](O)(C(=O)OC)[C@H](OC(C)=O)[C@]5(CC)C=CCN6CC[C@]43[C@@H]65)C2)C1", "note": "[vincristine] + C[C@@H](Oc1cc(-c2cnn(C3CCNCC3)c2)cnc1N)c1c(Cl)ccc(F)c1Cl [Crizotinib] (first compound 0.0001 µM, partner dose 0.2 µM)", "cleaved PARP positive nuclei fraction": 52.9}, {"molecule": "O=c1[nH]nc(Sc2ncc([N+](=O)[O-])s2)n1-c1ccc2c(c1)OCCO2", "note": "+ CN(c1ncccc1CNc1nc(Nc2ccc3c(c2)CC(=O)N3)ncc1C(F)(F)F)S(C)(=O)=O [PF562271] (first compound 0.2 µM, partner dose 0.08 µM)", "cleaved PARP positive nuclei fraction": 86.4}, {"molecule": "O=C(Nc1cc(C(F)(F)F)cc(C(F)(F)F)c1)c1cc(Cl)ccc1O", "note": "+ Nc1ccn([C@@H]2O[C@H](CO)[C@@H](O)C2(F)F)c(=O)n1 [gemcitabine] (first compound 0.016 µM, partner dose 0.0004 µM)", "cleaved PARP positive nuclei fraction": 119}, {"molecule": "COc1cc([C@@H]2c3cc4c(cc3[C@@H](O[C@@H]3O[C@@H]5CO[C@@H](C)O[C@H]5[C@H](O)[C@H]3O)[C@H]3COC(=O)[C@H]23)OCO4)cc(OC)c1O", "note": "[etoposide] + CCCS(=O)(=O)Nc1ccc(F)c(C(=O)c2c[nH]c3ncc(Cl)cc23)c1F [PLX4720] (first compound 0.02 µM, partner dose 0.08 µM)", "cleaved PARP positive nuclei fraction": 65.8}, {"molecule": "CC[C@]1(O)C[C@H]2CN(CCc3c([nH]c4ccccc34)[C@@](C(=O)OC)(c3cc4c(cc3OC)N(C=O)[C@H]3[C@@](O)(C(=O)OC)[C@H](OC(C)=O)[C@]5(CC)C=CCN6CC[C@]43[C@@H]65)C2)C1", "note": "[vincristine] + Cn1c(=O)n(-c2ccc(C(C)(C)C#N)cc2)c2c3cc(-c4cnc5ccccc5c4)ccc3ncc21 [NVP-BEZ235] (first compound 0.0001 µM, partner dose 0.004 µM)", "cleaved PARP positive nuclei fraction": 137}, {"molecule": "COc1cc([C@@H]2c3cc4c(cc3[C@@H](O[C@@H]3O[C@@H]5CO[C@@H](C)O[C@H]5[C@H](O)[C@H]3O)[C@H]3COC(=O)[C@H]23)OCO4)cc(OC)c1O", "note": "[etoposide] + CN(c1ncccc1CNc1nc(Nc2ccc3c(c2)CC(=O)N3)ncc1C(F)(F)F)S(C)(=O)=O [PF562271] (first compound 0.02 µM, partner dose 0.08 µM)", "cleaved PARP positive nuclei fraction": 97.4}]}]}
